Experimental data published in PMC7819943, “Rice protein-binding microarrays: a tool to detect cis-acting elements near promoter regions in rice”.
The list shows a part of the results.

Molecular target: T1, OsSMF1 (Oryza sativa, UniProt Q6ZLB0 1-436)
T1 sequence: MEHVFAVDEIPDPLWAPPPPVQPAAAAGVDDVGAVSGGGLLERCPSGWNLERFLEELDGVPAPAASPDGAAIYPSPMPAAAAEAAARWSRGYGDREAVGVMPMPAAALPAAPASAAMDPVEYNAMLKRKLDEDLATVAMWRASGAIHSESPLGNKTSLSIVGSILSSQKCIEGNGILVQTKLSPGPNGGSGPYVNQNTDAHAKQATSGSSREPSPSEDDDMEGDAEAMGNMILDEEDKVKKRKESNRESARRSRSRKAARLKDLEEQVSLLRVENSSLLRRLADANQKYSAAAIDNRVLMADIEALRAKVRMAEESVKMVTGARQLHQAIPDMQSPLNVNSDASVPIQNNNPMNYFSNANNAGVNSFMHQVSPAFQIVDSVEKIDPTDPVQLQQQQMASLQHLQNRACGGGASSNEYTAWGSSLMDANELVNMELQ
Test: protein-binding microarray (RPBM); PBS, 2% BSA, 51.3 ng/ul salmon testes DNA, 50 uM zinc acetate, 200 nM TF, 25 C, 1 h; high values mean tight binding
Details: protein: recombinant; tags: N-terminal polyhistidine and DsRed monomer fusion (pET32a); chain copies: 2; label: CyDye5-dUTP incorporated in the synthesized complementary strand; 3' TTTTT single-stranded linker to array surface; dsDNA, one strand shown
Procedure, shortened: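 Transcription factors were each fused at the N-terminus to a polyhistidine tag plus DsRed and expressed in E. coli BL21-CodonPlus before Ni–NTA purification. Binding to a double-stranded custom Agilent array was carried out with 200 nM protein at 25 °C for 1 h in PBS, 2% BSA, salmon testes DNA and 50 µM zinc acetate. The binding signal is per-feature fluorescence intensity, in arbitrary units, on an Axon 4000B scanner.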

Row | Sequence | binding signal
1 | GAAGCCAAGCCAAGCACACGAGCGCAGCAGCAGCAGCAGCCGGAGTCACCTAGTGCAG | 25400 fluorescence intensity (a.u.)
2 | TTCTTTGACAAGCCTCGCATTGACGCATTCTGAAAGCCTGCGGAGTCACCTAGTGCAG | 4260 fluorescence intensity (a.u.)
3 | CTCGTCCTCCGCTCCGGCGTCATCTCCCGGCACCGCTCCGCGGAGTCACCTAGTGCAG | 3170 fluorescence intensity (a.u.)
4 | AGATTGGTGAGGATACATGTACGTGTACGCGTACGTGGCACGGAGTCACCTAGTGCAG | 11100 fluorescence intensity (a.u.)
5 | TTAAAGCAACGAAACCCCACTATAATACTCCCCATCTCCCCGGAGTCACCTAGTGCAG | 21800 fluorescence intensity (a.u.)
6 | ACCGGCGGTGCCACTCCAATCGTCGCCACGTAGCCGTCGACGGAGTCACCTAGTGCAG | 6560 fluorescence intensity (a.u.)
7 | TCGCCGAAGCCCGTCACCATCGCGTCACCATCGCGTCCGACGGAGTCACCTAGTGCAG | 11700 fluorescence intensity (a.u.)
8 | CACGCTTCGGAGAATTTCCGACAATACACATACTCCTACTCGGAGTCACCTAGTGCAG | 3260 fluorescence intensity (a.u.)
9 | GACTTCACTCACACGCGCACTCATATCCACGTACGATCTCCGGAGTCACCTAGTGCAG | 6500 fluorescence intensity (a.u.)
10 | GATCGGAATGGGCTGGGCCTGAGAAGACTACTACATGGGCCGGAGTCACCTAGTGCAG | 26800 fluorescence intensity (a.u.)
11 | ACCTCCACCTCCGCGTCGCCCACCACCACCACGGCCGGCACGGAGTCACCTAGTGCAG | 3780 fluorescence intensity (a.u.)
12 | CGCGCGGCTCTCACGGGCGCCCTCGTACGTGTTGGTGTTGCGGAGTCACCTAGTGCAG | 4000 fluorescence intensity (a.u.)
13 | CCCTTTGTTACCACCAACTCATCAGCACCATATGTGGTAACGGAGTCACCTAGTGCAG | 3340 fluorescence intensity (a.u.)
14 | TGACCTAGTCCACGTGGAAACCGTAGCCGACTCGTCCTCGCGGAGTCACCTAGTGCAG | 12800 fluorescence intensity (a.u.)
15 | CTAATATATTGACGTGCAATCCTTCTGCGCGTTCGAGAAACGGAGTCACCTAGTGCAG | 3960 fluorescence intensity (a.u.)
16 | CACTCCACTGCAACCGTGCAACGCTGACACTCACTTTTAACGGAGTCACCTAGTGCAG | 4230 fluorescence intensity (a.u.)
17 | ATATTCTATTTAGCCATCTAACAACATTATGGAACTAGTCCGGAGTCACCTAGTGCAG | 4260 fluorescence intensity (a.u.)
18 | CGACGAGGGTGGGGCCGCCGCGCTCACCTCCAACGAGGACCGGAGTCACCTAGTGCAG | 4130 fluorescence intensity (a.u.)
19 | ACCGGCTCTTGTACCGGCCCATGACGTCGACGCCGGTGACCGGAGTCACCTAGTGCAG | 6370 fluorescence intensity (a.u.)
20 | TCCGAAAACAAAAGTCTATTTAGAAAACCGATCCGTCATTCGGAGTCACCTAGTGCAG | 26000 fluorescence intensity (a.u.)
21 | GATACATCAAGAGTCATGACACAAACTAAATGTGTAGTATCGGAGTCACCTAGTGCAG | 3680 fluorescence intensity (a.u.)
22 | CTACTTCCAAATTCAGCTCCAGCTCACCACGCTGGAGAAACGGAGTCACCTAGTGCAG | 4180 fluorescence intensity (a.u.)
23 | GACGCCGTCTCCTACCAGGTCAGCCAAGCCACTATTCCCTCGGAGTCACCTAGTGCAG | 3330 fluorescence intensity (a.u.)
24 | CGGCGGCGCGGTCTCCCTCGTGACGTAGCTCGGCGGCGCGCGGAGTCACCTAGTGCAG | 8300 fluorescence intensity (a.u.)
25 | TGCTCAGGGAGGTGGAGGGGCGCGGCGGAGCGAGCCGAGGCGGAGTCACCTAGTGCAG | 3950 fluorescence intensity (a.u.)
26 | ACTATTTGCCACCTTTGCCTACGTGGCGAACCAACGTGGCCGGAGTCACCTAGTGCAG | 28100 fluorescence intensity (a.u.)
27 | AGTACTCCAACTCATACTACTACTAATCTCTCTCTCTTTCCGGAGTCACCTAGTGCAG | 3950 fluorescence intensity (a.u.)

Records 15 through 17 from above:
Row | Sequence | binding signal
15 | CTAATATATTGACGTGCAATCCTTCTGCGCGTTCGAGAAACGGAGTCACCTAGTGCAG | 3960 fluorescence intensity (a.u.)
16 | CACTCCACTGCAACCGTGCAACGCTGACACTCACTTTTAACGGAGTCACCTAGTGCAG | 4230 fluorescence intensity (a.u.)
17 | ATATTCTATTTAGCCATCTAACAACATTATGGAACTAGTCCGGAGTCACCTAGTGCAG | 4260 fluorescence intensity (a.u.)

(cont.)

Row | Sequence | binding signal
28 | ACAAGGGTAGTCAGCATCCATTGTGACGTGGTCCATTGACCGGAGTCACCTAGTGCAG | 14100 fluorescence intensity (a.u.)
29 | TTGCCAGTTGCCATTGCAATTACATGTACTCCACCTACAACGGAGTCACCTAGTGCAG | 3560 fluorescence intensity (a.u.)
30 | GAACTAGTGATCGCCCCTCCGGCTGACGCCGACGGTAGCGCGGAGTCACCTAGTGCAG | 5120 fluorescence intensity (a.u.)
31 | CATCCCTAGTCGGCGTCTTGTCATCGCCGCCCCAATCTCGCGGAGTCACCTAGTGCAG | 4430 fluorescence intensity (a.u.)
32 | CCAAACTGTAACGCGTCAGCCTATACCTATCGACTTGCTGCGGAGTCACCTAGTGCAG | 3730 fluorescence intensity (a.u.)
33 | GGTTTAGAACGAGACGCATGACGATATCAATCACCCACCCCGGAGTCACCTAGTGCAG | 3340 fluorescence intensity (a.u.)
34 | TACTATCACACCACGCGTCTACGTATGATCCTACTGCTTACGGAGTCACCTAGTGCAG | 4290 fluorescence intensity (a.u.)
35 | GCGCTCGCCGGAGGAGGAGGAGGAGGATCTTGATTTGTGTCGGAGTCACCTAGTGCAG | 3460 fluorescence intensity (a.u.)
36 | CCGCCTCCCGATCCCCTCCGCGTCACGGCCTCACTCGTCGCGGAGTCACCTAGTGCAG | 7900 fluorescence intensity (a.u.)
37 | ATTGTAATTCTCTGTTGTTTAGCATATATTAAGGTTTGAGCGGAGTCACCTAGTGCAG | 4280 fluorescence intensity (a.u.)
38 | CCAATTGCTTACGTACGACTACTCCTCCACGCCCCAAATCCGGAGTCACCTAGTGCAG | 4360 fluorescence intensity (a.u.)
39 | GTACTGCGGTGGATTTTGGACACGTGGGCTTGACGTATTCCGGAGTCACCTAGTGCAG | 15300 fluorescence intensity (a.u.)
40 | ATATGGATCCCAATGGACGCGTCGTCATGCCAATTGGGCCCGGAGTCACCTAGTGCAG | 3630 fluorescence intensity (a.u.)
41 | CTGCAGATGACATCCGTATTGCTGACTGTACTGTAGCAGCCGGAGTCACCTAGTGCAG | 15200 fluorescence intensity (a.u.)
42 | CAGCCTCCCGTCGCTGCCGGCGTGGCGCCCACCCTAGGACCGGAGTCACCTAGTGCAG | 4720 fluorescence intensity (a.u.)
43 | CACTCGCCAGGAGGAGCCAGCCGACGAGGGCGCAGCGGCGCGGAGTCACCTAGTGCAG | 3540 fluorescence intensity (a.u.)
44 | TTTACTATACTATTAATATATGGTCCCACCTGTCATACACCGGAGTCACCTAGTGCAG | 3730 fluorescence intensity (a.u.)
45 | TCAGTTGACACACAAGGTTCAGATGTGAAGAGATCCTCATCGGAGTCACCTAGTGCAG | 23300 fluorescence intensity (a.u.)
46 | CATGGACGATCGATGGACGGCGGAAGACCTCACCGGCCTGCGGAGTCACCTAGTGCAG | 22200 fluorescence intensity (a.u.)
47 | CCTTGGACTCGCCACCGCCACCTCCTCCAATCGCATTCTCCGGAGTCACCTAGTGCAG | 3240 fluorescence intensity (a.u.)
48 | ATAGTGGTGAGTATGCGCGTGTTATAGACGTATGCGTTTGCGGAGTCACCTAGTGCAG | 3530 fluorescence intensity (a.u.)
49 | GACGACACCGGCGGTGAAGAGCTGGAGCATGACGAGCGCCCGGAGTCACCTAGTGCAG | 3750 fluorescence intensity (a.u.)
50 | ATGGGTGATTTCACTGACGTGGCATCCTAGTCAGCCAAAACGGAGTCACCTAGTGCAG | 20700 fluorescence intensity (a.u.)
51 | ACCGTTGAATTTTAGATATAAGTTTGACTATTCATCTTATCGGAGTCACCTAGTGCAG | 3990 fluorescence intensity (a.u.)
52 | CCGTATATCCGCTTACGTCACCTCGCTGCTTGGCCTTGTTCGGAGTCACCTAGTGCAG | 18800 fluorescence intensity (a.u.)
53 | GTTTATATGGGTTAGATGTAGCCATGTCACCTCTTTCTAACGGAGTCACCTAGTGCAG | 3150 fluorescence intensity (a.u.)
54 | TATCCGACAGACGCGCCGTGTCAGCGAGCTCCTCGACCGACGGAGTCACCTAGTGCAG | 3920 fluorescence intensity (a.u.)
